PMC6527222 (PLoS ONE, 2019)

System: JB6 P+ cells
Experiment: Anchorage-independent growth assay in soft agar (EGF-induced JB6 P+ colony formation)
Assay type: cell-based
Settings: Mus musculus, 336 h, 10 ng/mL EGF, 14 days; negative log value
Method: Ten ng/mL EGF was used to promote the anchorage-independent growth of JB6 cells. […] Plates were incubated at 37°C, 5% CO2 for 14 days. Colonies with greater than ten cells were counted manually under a microscope. […] Normalization allowed for comparison of data over a range of JB6 P+ cell cultures, passages, and experimental time for the shRNA studies, as well as control for variation in the EGF response, and importantly allowed for a direct comparison to all concentration-response experiments including the toxicity assays. Data are expressed as mean ± SD and were analyzed using GraphPad Prism version 7.02 (La Jolla, CA). All group sizes were determined via previous studies to provide statistically meaningful data. […] Additionally, not all GraphPad Prism fitted data was appropriate as the predicted bottom of the curve or IC50 was calculated as large negative values, which is impossible for cell counts, and thus the IC50 could not be used to compare to proper sigmoidal concentration-response curves. […] The I[…]*PSD is expressed in x-axis units (log [M]) as is an IC50 and it represents the first concentration where it is expected to observe a statistical decrease in the measured signal. […] Using the formula provided by GraphPad Prism or a straight line for the point-to-point graphs, the X-axis value for point Y was determined. […]

`CC(C)NCC(O)COc1cccc2ccccc12` (stereo not shown) [Propranolol] showed an IC50 of 9.33 µM.
